Reference: publication PMC9388692, “Nuclear import of PTPN18 inhibits breast cancer metastasis mediated by MVP and importin β2” (Cell Death & Disease, 2022)
Results are given in words; binding and its absence hold for the method and conditions named. Binding seen in cells or lysates may run through a third protein. For part of these data: Binding can be weak; no strength is given. Each block holds one molecule with its values, some of them ahead of it.

Amino acid sequences for entries named in this document (tags omitted).
UniProt Q14764: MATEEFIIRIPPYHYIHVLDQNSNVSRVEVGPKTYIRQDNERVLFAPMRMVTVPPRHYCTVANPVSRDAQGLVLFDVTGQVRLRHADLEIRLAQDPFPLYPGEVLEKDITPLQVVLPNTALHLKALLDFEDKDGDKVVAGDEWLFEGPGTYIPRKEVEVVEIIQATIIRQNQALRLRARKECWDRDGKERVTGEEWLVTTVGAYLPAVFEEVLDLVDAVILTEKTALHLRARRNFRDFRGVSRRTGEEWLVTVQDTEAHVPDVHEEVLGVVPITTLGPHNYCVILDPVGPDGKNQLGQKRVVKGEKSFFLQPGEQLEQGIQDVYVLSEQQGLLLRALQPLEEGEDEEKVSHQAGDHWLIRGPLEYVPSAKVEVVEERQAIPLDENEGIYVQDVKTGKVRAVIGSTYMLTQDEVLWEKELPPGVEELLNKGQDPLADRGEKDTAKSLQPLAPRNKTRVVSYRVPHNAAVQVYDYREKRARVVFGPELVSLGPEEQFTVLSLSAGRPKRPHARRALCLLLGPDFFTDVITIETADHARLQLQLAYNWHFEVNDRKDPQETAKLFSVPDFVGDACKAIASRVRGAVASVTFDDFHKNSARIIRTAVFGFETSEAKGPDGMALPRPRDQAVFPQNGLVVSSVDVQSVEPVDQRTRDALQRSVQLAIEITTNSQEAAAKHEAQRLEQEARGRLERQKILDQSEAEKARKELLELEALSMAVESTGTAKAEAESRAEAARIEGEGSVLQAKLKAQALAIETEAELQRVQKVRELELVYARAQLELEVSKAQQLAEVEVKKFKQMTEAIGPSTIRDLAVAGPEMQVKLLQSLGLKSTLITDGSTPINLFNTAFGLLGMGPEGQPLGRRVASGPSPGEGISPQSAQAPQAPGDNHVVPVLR

Assays:
Flag-MVP = Flag-MVP (UniProt Q14764); assay: co-IP; ectopic tagged proteins in 293T cells, lysed 48 h after transfection in RIPA buffer, primary antibody overnight at 4 °C, protein A/G agarose, western blot
importin α1 = assay: co-IP; PTPN18 and members of the importin family; cells and constructs not stated
importin α3 = assay: as above
importin α4 = assay: as above
importin α5 = assay: as above
importin α6 = assay: as above
importin α7 = assay: as above

binding (Flag-MVP): no binding
Molecule: PTPN18-GFP ΔpNLS2B (from UniProt Q99952)

binding (Flag-MVP): no binding
Molecule: PTPN18-GFP ΔpNLS2A (from UniProt Q99952)

binding (Flag-MVP): binds
Molecule: PTPN18-GFP ΔpNLS3 (from UniProt Q99952)

binding (importin α1): no binding
binding (importin α3): no binding
binding (importin α4): no binding
binding (importin α5): no binding
binding (importin α6): no binding
binding (importin α7): no binding
B1: GST-tagged PTPN18 (natural protein, UniProt Q99952 1-460, looked up)
chain: MSRSLDSARSFLERLEARGGREGAVLAGEFSDIQACSAAWKADGVCSTVAGSRPENVRKNRYKDVLPYDQTRVILSLLQEEGHSDYINGNFIRGVDGSLAYIATQGPLPHTLLDFWRLVWEFGVKVILMACREIENGRKRCERYWAQEQEPLQTGLFCITLIKEKWLNEDIMLRTLKVTFQKESRSVYQLQYMSWPDRGVPSSPDHMLAMVEEARRLQGSGPEPLCVHCSAGCGRTGVLCTVDYVRQLLLTQMIPPDFSLFDVVLKMRKQRPAAVQTEEQYRFLYHTVAQMFCSTLQNASPHYQNIKENCAPLYDDALFLRTPQALLAIPRPPGGVLRSISVPGSPGHAMADTYAVVQKRGAPAGAGSGTQTGTGTGTGARSAEEAPLYSKVTPRAQRPGAHAEDARGTLPGRVPADQSPAGSGAYEDVAGGAQTGGLGFNLRIGRPKGPRDPPAEWTRV
notes: PTPN18 wild type, GST-tagged, for GST pull-down; also called PTPN18 WT; source: purified proteins
